In PMC11239682:
No constants are given. Whether binding was seen depends on the method and setting. Binding can be weak; no strength is given. Tags and fused reporters may be left off the sequences shown. For some assays here: Binding seen in cells or lysates may run through a third protein. Values belong to the molecule of their own block, whether it stands above or below them.

Assays:
[1] = target: T1, NopL-GFP (Sinorhizobium fredii HH103) (UniProt P55704); assay: co-IP; soybean hairy roots co-expressing 35S:NopL-GFP and REM1a/1b-Myc; IP with anti-GFP antibody (rabbit IgG as control), blot with anti-Myc
T1 sequence: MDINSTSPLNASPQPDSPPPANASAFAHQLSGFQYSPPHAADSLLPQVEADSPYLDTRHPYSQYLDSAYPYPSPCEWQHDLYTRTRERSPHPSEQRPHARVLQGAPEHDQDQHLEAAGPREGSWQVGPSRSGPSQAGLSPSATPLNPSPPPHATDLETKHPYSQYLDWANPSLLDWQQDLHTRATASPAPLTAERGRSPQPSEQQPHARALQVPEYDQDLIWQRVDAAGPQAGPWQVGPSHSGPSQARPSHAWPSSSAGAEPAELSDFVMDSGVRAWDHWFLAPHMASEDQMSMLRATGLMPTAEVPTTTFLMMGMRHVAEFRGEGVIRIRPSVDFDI

[2] = target: T2, GST-NopL (Sinorhizobium fredii HH103) (UniProt P55704); assay: pull-down; in vitro GST pull-down: His-tagged remorin incubated with GST or GST-NopL (bait) in 20 mM Tris-HCl, 100 mM NaCl, 0.1 mM EDTA, 0.2% Triton X-100, pH 7.4; Glutathione Magarose Beads, 4 °C; anti-GST and anti-His blots; both purified
T2 sequence: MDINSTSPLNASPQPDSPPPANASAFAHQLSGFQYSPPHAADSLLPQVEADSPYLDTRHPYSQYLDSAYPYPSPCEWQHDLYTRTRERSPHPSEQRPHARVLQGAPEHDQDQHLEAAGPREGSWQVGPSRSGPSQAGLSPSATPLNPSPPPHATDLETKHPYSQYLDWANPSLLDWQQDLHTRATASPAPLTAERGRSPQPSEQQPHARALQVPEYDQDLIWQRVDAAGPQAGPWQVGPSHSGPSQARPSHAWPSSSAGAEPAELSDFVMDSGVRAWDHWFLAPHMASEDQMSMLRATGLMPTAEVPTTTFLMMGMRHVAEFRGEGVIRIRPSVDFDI

[3] = target: T3, NopL, yeast two-hybrid fusion (Gal4 system) (Sinorhizobium fredii HH103) (UniProt P55704); assay: two-hybrid; Gal4 yeast two-hybrid, strain AH109
T3 sequence: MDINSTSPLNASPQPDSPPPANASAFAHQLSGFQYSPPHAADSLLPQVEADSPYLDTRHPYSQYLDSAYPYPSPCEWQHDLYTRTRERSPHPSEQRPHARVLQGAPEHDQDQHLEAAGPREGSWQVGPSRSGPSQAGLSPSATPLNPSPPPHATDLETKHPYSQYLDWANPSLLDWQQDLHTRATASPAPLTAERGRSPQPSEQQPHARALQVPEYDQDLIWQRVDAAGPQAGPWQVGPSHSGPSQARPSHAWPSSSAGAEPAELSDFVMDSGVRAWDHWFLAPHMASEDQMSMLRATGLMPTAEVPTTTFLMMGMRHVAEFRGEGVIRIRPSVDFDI

[4] = target: GmNFR5-FLAG (Glycine max); assay: co-IP; soybean hairy roots expressing GmNFR5-FLAG and NopL-GFP; blots with anti-FLAG and anti-GFP; which partner was precipitated is not told

binding [1]: binds
Molecule: GmREM1a-Myc (Glycine max)

binding [2]: binds
Molecule: His-GmREM1a (Glycine max)

binding [1]: binds
Molecule: GmREM1b-Myc (Glycine max)

binding [3]: binds
Molecule: GmREM1a, yeast two-hybrid fusion (Gal4 system) (Glycine max)

binding [4]: binds
B1: NopL-GFP (protein, UniProt P55704 1-338)
chain: MDINSTSPLNASPQPDSPPPANASAFAHQLSGFQYSPPHAADSLLPQVEADSPYLDTRHPYSQYLDSAYPYPSPCEWQHDLYTRTRERSPHPSEQRPHARVLQGAPEHDQDQHLEAAGPREGSWQVGPSRSGPSQAGLSPSATPLNPSPPPHATDLETKHPYSQYLDWANPSLLDWQQDLHTRATASPAPLTAERGRSPQPSEQQPHARALQVPEYDQDLIWQRVDAAGPQAGPWQVGPSHSGPSQARPSHAWPSSSAGAEPAELSDFVMDSGVRAWDHWFLAPHMASEDQMSMLRATGLMPTAEVPTTTFLMMGMRHVAEFRGEGVIRIRPSVDFDI
